Here are results for 1 substance from article doi:10.1101/2020.06.02.095570 (bioRxiv, 2020).

Protein sequences, listed by entry. Tags and fused reporters are not part of them. Residues count along the entry.
UniProt Q96E22, residues 73-293: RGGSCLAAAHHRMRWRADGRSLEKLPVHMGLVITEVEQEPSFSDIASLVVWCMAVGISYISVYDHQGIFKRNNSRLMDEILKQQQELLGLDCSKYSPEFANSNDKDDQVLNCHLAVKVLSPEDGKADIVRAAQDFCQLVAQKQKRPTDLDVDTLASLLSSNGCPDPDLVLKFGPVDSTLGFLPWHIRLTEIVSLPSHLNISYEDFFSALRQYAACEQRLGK

The test has as its target soluble Nogo-B receptor, cytosolic domain (sNgBR, residues 73*-293*) (human) (UniProt Q96E22). The test can be described thus: cross-linking.

No constants are given. Whether binding was seen depends on the method and setting.

In the case of “soluble Nogo-B receptor, cytosolic domain (sNgBR, residues 73*-293*) (from UniProt Q96E22 73-293) (domain or fragment)”, the binding entry is “no binding (tested: 8 μM shcis-PT)”.
